For the assay, the target named is T1, HA-tagged SseI (full length), Salmonella Typhimurium SPI2 effector protein (Salmonella typhimurium (STM) strain LT-2) (UniProt Q8ZQ79).
T1 sequence: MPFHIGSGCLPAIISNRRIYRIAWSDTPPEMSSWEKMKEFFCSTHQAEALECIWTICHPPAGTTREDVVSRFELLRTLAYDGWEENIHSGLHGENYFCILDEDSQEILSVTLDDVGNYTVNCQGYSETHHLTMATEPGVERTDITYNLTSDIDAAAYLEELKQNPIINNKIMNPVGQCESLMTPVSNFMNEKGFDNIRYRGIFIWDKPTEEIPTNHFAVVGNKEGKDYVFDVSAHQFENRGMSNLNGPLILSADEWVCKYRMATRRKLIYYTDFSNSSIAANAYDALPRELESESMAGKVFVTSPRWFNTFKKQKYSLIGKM
Description: co-IP.

Amino acid sequences for entries named in this document (tags omitted).
UniProt P84077: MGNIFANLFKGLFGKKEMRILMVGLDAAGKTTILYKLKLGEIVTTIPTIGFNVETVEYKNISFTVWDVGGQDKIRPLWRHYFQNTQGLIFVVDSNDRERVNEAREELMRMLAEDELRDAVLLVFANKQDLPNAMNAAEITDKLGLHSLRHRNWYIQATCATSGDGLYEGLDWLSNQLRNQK

The values below come from doi:10.1101/2023.02.27.530266.

These are yes or no findings as the source states them, for the method shown. Binding seen in cells or lysates may run through a third protein. Some results given as binding are weak or reduced against the parent protein; the word gives no strength. Tags and fused reporters may be left off the sequences shown.

“GFP-tagged ARF1 (ADP-ribosylation factor 1) (from UniProt P84077 1-181)”: the binding entry is listed as “binds”.
